Read-outs that look alike come from different tables or passages of the source. These are yes or no findings as the source states them, for the method shown. Binding seen in cells or lysates may run through a third protein. Some entries that bind do so weakly or less than the wild type. For part of these data: Sequences can lack the tags named with a protein.
T1: FLAG-tagged Shu (Shu-FLAG) (Drosophila) (UniProt Q9W1I9)
T1 sequence: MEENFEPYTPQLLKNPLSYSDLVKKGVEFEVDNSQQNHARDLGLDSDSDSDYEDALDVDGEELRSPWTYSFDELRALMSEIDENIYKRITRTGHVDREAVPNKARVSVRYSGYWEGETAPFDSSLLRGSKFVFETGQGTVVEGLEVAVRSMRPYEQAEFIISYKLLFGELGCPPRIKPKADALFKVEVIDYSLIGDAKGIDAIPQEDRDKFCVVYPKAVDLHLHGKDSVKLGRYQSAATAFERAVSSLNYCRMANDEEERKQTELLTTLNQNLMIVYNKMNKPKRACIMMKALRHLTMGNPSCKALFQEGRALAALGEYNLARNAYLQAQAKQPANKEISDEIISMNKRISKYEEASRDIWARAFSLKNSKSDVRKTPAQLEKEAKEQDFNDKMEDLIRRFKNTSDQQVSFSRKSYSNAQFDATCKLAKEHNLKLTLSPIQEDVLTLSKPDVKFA

Amino acid sequences for entries named in this document (tags omitted).
UniProt P02828: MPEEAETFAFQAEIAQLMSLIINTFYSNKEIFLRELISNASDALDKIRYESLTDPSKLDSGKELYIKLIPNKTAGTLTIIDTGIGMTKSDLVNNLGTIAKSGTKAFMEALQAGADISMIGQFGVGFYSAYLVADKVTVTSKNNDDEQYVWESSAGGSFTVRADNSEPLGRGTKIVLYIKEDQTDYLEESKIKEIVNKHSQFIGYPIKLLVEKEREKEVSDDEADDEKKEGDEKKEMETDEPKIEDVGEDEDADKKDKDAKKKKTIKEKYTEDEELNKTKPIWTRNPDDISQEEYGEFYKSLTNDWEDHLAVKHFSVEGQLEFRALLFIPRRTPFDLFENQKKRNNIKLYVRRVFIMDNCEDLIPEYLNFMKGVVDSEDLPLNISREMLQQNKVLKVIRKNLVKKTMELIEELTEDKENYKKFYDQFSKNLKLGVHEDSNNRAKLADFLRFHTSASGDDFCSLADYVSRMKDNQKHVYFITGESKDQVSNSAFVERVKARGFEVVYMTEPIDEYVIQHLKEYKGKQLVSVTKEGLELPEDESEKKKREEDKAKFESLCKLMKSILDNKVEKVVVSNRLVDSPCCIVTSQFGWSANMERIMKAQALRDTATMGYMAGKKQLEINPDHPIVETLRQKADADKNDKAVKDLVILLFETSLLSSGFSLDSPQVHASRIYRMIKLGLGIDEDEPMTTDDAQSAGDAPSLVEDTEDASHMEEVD

T2: Shutdown (Shu), endogenous in OSCs (Drosophila (endogenous in OSCs)) (UniProt Q9W1I9)
T2 sequence: T1 sequence

T3: Shu ΔN77-FLAG (Drosophila) (UniProt Q9W1I9)
T3 sequence: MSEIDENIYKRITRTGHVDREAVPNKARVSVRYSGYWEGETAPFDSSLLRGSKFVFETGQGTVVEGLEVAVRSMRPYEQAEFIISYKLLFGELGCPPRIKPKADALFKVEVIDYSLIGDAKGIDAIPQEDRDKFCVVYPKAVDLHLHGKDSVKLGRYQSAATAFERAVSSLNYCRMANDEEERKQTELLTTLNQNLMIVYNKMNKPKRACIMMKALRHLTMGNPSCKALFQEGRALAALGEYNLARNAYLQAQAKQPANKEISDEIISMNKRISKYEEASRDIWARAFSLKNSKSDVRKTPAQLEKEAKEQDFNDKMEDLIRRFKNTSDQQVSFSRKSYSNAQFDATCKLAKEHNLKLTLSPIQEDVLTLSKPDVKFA

B1: Piwi, endogenous in OSCs (protein, UniProt Q9VKM1 1-843)
chain: MADDQGRGRRRPLNEDDSSTSRGSGDGPRVKVFRGSSSGDPRADPRIEASRERRALEEAPRREGGPTERKPWGDQYDYLNTRPAELVSKKGTDGVPVMLQTNFFRLKTKPEWRIVHYHVEFEPSIENPRVRMGVLSNHANLLGSGYLFDGLQLFTTRKFEQEITVLSGKSKLDIEYKISIKFVGFISCAEPRFLQVLNLILRRSMKGLNLELVGRNLFDPRAKIEIREFKMELWPGYETSIRQHEKDILLGTEITHKVMRTETIYDIMRRCSHNPARHQDEVRVNVLDLIVLTDYNNRTYRINDVDFGQTPKSTFSCKGRDISFVEYYLTKYNIRIRDHNQPLLISKNRDKALKTNASELVVLIPELCRVTGLNAEMRSNFQLMRAMSSYTRMNPKQRTDRLRAFNHRLQNTPESVKVLRDWNMELDKNVTEVQGRIIGQQNIVFHNGKVPAGENADWQRHFRDQRMLTTPSDGLDRWAVIAPQRNSHELRTLLDSLYRAASGMGLRIRSPQEFIIYDDRTGTYVRAMDDCVRSDPKLILCLVPNDNAERYSSIKKRGYVDRAVPTQVVTLKTTKNRSLMSIATKIAIQLNCKLGYTPWMIELPLSGLMTIGFDIAKSTRDRKRAYGALIASMDLQQNSTYFSTVTECSAFDVLANTLWPMIAKALRQYQHEHRKLPSRIVFYRDGVSSGSLKQLFEFEVKDIIEKLKTEYARVQLSPPQLAYIVVTRSMNTRFFLNGQNPPPGTIVDDVITLPERYDFYLVSQQVRQGTVSPTSYNVLYSSMGLSPEKMQKLTYKMCHLYYNWSGTTRVPAVCQYAKKLATLVGTNLHSIPQNALEKKFYYL
B2: Myc-tagged Armi (Myc-Armi) (protein, UniProt Q6J5K9 1-1188)
chain: MFTYVSKFFTNPDRNREDILESLDRENSFLDQKLMEEKMDQQLKANPNEINGVLSNKIAELTHGLSEMDVSKESSCTARKGVITSLDGDRGVIDKDVLFETKVAEDIILDLHVGCVVEYLTFTTGEAMRVVKVKSILEHSWEDTSQKEIEKAVDNLKNEKPTFFNTETRSVLGLISQRLASSIDVETEYGQLTVELDNIEMNFIPTNGDRVRLECNIQLDDGFVDKQGEILEVTKLFPTRIQEGEKCIVERVYVHMVVLGPETYILKTDLPTGTDLHLGDIVLADLIECQYSKFTRRAIKITPLEKNFGATKLTQQSSMGSSGSGKAVTVTGVNRFITAELWQKESVSLKLTNNLNRTLRLESITVCNDSESQLSVVSPLESKEISSGSEITVTFEIHTQFLGEAIEKYVLNFDLLKVRRVFTVIVCKTKEEVAEAEKRMIAAEALMAPGRNSQERSRFYANQVWCNKVDVIPGQQIVTKRRFVALRLGCFEVPKELRQICLTSERRQEMIKAIEQHYSFLTEPLSIKTYMHRFRLLLHLEEIECFVNFRNYDRDRAHFLRDGEFLTLQIENLAERRPSLVIGDTLRVINPWSDPDSQTTKSYEGIIHKVLFDRILLKFHSSFQEKYNGEDYRLEFYFSRYSFRKQHHAISKIVGVMGEDFLFPSKVTKRENPQLDVYMKDDDMYLYDSKLEWYNQSLNSIQKRAVFNILRGEAENIPYVLFGPPGSGKTMTLIETLLQLVRNLPGARILVGTPSNSSADLVTKRLIDSKALLQGDFIRLVSYNQVEKDLIPPEIMSYCATSDVGAVGSCEDKMMVTESGLKLRCQAKFIGTHRITISTCTTLGNFLQLGFPAGHFTHVLFDEAGQCTEPETMVPIVMLTKKRSQVVLSGDPRQLQSIVTSRIASKMGFSISFLERLLERSPYRKDLQRFPESSGYNPLVLTKLLYNYRALPSIMSIYSRLFYDDELIPVLSEKDSRESRLLSKLRCVFESEKDIPQAHGTFFYGIIGENRQNNDSPSWFNPQEVREVFLMTIALYRANVTADQIGIITPYQKQVKMLRSMFIGTDVVMPKIGSVEEFQGQERDIILISTVRSSEEILRMDARFSLGFVRCSKRLNVAVSRARAMMIIFGNPHLLAVDECWRQLILFCVKNNAYFGCDLPQMVINQKDEVPVCLETFVPSLNTTDDLN
B3: Myc-tagged Piwi (Myc-Piwi) (protein, UniProt Q9VKM1 1-843)
chain: B1 chain
B4: Shu ΔN77-FLAG (domain or fragment, UniProt Q9W1I9 78-455)
chain: T3 sequence

Assays:
Assay in all cases: co-IP
[1] = molecular target: T1, FLAG-tagged Shu (Shu-FLAG) (Drosophila)
[2] = molecular target: T2, Shutdown (Shu), endogenous in OSCs (Drosophila (endogenous in OSCs))
[3] = molecular target: T3, Shu ΔN77-FLAG (Drosophila)
[4] = molecular target: T1, FLAG-tagged Shu (Shu-FLAG) (Drosophila); remark: listed apart in the source

| Molecule | binding [3] | further results |
| --- | --- | --- |
| HSP83, endogenous in OSCs (from UniProt P02828 1-717) | – | binding [1]: no binding |
| B1 | – | binding [2]: binds |
| B2 | binds | – |
| B3 | binds | binding [4]: binds |
| B4 | binds | – |

— publication doi:10.1101/2024.11.13.623522 (bioRxiv, 2024)
